From US20030195205A1, “PDE9 inhibitors for treating cardiovascular disorders” (Pfizer Inc., priority 2001, published 2003)
Like-named read-outs stand apart in the source and are kept apart here. Some results were stated once for a whole list of compounds, not compound by compound.

Protein sequences, listed by entry. Tags and fused reporters are not part of them. Lines headed by an entry give the natural chain unless they say otherwise; changes in a name come on top.
UniProt O76083: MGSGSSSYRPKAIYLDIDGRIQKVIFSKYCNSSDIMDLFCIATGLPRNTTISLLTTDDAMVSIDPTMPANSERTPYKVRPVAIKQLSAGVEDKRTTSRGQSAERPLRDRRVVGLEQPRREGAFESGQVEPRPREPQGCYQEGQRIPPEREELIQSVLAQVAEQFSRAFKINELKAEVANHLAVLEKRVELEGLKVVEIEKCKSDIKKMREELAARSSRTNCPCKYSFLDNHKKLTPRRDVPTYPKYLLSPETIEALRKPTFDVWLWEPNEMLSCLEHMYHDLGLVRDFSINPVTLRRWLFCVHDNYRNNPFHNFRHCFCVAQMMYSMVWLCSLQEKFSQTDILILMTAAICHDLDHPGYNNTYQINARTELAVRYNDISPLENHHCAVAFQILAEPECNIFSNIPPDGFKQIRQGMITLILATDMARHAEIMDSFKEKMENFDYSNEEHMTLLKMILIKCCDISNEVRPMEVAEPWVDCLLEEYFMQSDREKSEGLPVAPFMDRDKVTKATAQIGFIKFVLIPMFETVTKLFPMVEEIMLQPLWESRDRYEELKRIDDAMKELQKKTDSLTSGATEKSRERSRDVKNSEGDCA

Biological target: T1, purified recombinant human PDE9 (Homo sapiens, UniProt O76083)
T1 construct: FLAG; made in house; host or cells: baculovirus/Sf9
Assay: PDE9 enzyme inhibition scintillation proximity assay ([3H]cGMP hydrolysis)
Format: biochemical
Protocol: The ability of the compounds of the invention to inhibit the PDE9 enzyme was determined using the following in vitro assay. The assay used purified recombinant human PDE9.
The assay uses [3H]cGMP which is hydrolysed by the PDE9 enzyme to the 5′-nucleotide [3H]GMP. The [3H]GMP binds to yttrium silicate scintillation proximity assay (SPA) beads, and detected by scintillation counting. Inhibition of activity is determined relative to the activity of uninhibited controls.
Phosphodiesterase Scintillation Proximity Assay (SPA) beads (Yttrium Silicate) were obtained from Amersham Biotech.
[^3H]Guanosine 3′,5′-Cyclic Phosphate ([^3H]-cGMP), Ammonium Salt was obtained from Amersham Biotech.
Buffer A was prepared containing Tris.HCl (20 mM), MgCl2.6H2O (5 mM) in water.
Buffer B was prepared containing Bovine Serum Albumin (2 mg/ml) (BSA) in Buffer A. It was prepared fresh and filter sterilised.
PDE9 enzyme solution was prepared in Buffer B (dilution factor determined such that no more than 30% breakdown of substrate occurred, but typically 1:35,000). […]
The plates were then analysed using a scintillation counter (such as the NXT TopCount)TM.
For each compound the percentage inhibition was calculated by the following equation: […]
IC50 values were determined from sigmoid dose response curves of enzyme activity vs. compound concentration.

SMILES | inhibition against PDE9 at a concentration of 1 μM | inhibition against PDE9 at a concentration of 1 μM (1 μM compound)
CC(C)c1n[nH]c2c(=O)[nH]c(Cc3ccc(-c4ccccc4)cc3)nc12 [Compound 9] | greater than 40% | –
CC(C)c1n[nH]c2c(=O)[nH]c(Cc3cccc(F)c3F)nc12 [Compound 25] | – | greater than 40%
